The supplement of paper PMC10849652
Some of the results follow.

By UniProt entry, the sequences of proteins in these tests, tags left out. Where a name states a change or a piece, a line headed by the entry shows the natural chain unless it says otherwise.
UniProt P52747: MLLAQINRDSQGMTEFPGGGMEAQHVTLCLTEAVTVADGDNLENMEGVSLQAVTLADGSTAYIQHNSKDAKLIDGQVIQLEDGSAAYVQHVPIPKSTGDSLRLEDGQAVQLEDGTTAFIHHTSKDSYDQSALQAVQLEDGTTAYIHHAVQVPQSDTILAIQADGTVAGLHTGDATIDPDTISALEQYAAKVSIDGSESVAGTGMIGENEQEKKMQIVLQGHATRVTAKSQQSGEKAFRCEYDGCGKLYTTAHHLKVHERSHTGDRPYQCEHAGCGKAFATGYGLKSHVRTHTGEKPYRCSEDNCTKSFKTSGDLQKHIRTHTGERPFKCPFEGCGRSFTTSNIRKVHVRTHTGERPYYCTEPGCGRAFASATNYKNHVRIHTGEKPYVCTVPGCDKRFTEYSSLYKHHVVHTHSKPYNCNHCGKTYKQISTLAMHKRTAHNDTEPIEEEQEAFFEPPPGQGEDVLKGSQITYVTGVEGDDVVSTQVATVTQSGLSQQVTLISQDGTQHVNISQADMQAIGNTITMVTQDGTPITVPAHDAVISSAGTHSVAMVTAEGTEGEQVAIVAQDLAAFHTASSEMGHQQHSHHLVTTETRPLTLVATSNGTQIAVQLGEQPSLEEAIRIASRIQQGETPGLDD
UniProt P67809, whole entry, looked up: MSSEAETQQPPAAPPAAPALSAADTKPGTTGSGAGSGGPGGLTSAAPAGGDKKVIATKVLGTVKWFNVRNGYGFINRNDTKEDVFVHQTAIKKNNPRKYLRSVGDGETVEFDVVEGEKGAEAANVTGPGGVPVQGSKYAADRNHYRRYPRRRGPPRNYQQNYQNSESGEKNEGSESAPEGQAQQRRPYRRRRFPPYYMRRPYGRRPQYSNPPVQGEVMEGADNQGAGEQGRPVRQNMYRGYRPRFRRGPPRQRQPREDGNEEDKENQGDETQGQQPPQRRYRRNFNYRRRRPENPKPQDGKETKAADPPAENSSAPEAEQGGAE
UniProt P27348: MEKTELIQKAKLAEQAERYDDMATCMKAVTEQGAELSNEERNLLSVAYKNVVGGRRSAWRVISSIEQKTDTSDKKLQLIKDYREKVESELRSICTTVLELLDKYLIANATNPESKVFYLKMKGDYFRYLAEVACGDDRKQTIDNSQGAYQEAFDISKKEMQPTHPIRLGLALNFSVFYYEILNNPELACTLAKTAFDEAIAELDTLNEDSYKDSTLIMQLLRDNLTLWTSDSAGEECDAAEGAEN
UniProt Q86WB0: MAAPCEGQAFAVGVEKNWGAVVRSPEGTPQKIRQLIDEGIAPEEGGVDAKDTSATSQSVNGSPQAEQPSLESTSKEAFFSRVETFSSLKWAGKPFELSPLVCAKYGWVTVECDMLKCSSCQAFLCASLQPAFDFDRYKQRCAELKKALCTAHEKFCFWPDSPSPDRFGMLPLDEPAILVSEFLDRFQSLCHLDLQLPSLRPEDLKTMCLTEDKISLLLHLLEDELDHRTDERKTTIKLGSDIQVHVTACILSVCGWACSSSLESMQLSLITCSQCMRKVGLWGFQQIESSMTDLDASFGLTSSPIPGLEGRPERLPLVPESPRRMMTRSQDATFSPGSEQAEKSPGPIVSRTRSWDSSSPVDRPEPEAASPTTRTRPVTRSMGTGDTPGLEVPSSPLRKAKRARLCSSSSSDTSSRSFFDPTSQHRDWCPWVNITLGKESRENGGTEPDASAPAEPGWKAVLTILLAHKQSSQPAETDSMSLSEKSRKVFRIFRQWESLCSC
UniProt Q86VM9: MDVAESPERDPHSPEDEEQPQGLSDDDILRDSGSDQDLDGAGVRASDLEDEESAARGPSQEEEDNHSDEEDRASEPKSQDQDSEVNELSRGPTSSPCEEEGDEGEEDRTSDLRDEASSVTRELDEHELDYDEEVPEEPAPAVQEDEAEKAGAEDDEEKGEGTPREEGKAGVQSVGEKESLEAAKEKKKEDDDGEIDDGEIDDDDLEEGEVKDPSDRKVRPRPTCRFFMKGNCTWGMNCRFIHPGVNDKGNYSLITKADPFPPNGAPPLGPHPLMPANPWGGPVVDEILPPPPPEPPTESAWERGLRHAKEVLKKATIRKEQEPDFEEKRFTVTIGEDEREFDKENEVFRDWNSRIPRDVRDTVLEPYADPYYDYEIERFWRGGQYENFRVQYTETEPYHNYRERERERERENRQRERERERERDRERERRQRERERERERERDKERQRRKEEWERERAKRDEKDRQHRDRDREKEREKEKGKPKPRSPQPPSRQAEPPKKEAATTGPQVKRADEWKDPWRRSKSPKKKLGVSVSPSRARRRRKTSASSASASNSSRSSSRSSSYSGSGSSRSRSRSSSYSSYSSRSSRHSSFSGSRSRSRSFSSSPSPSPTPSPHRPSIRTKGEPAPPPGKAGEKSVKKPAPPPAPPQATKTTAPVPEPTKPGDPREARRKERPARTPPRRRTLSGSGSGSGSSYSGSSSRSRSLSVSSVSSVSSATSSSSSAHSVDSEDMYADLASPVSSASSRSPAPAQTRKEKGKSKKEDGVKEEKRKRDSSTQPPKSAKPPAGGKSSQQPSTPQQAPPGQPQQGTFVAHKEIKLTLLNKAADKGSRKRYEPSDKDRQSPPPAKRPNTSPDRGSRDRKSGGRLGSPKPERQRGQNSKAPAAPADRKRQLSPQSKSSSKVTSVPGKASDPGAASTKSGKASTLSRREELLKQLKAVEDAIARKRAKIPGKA
UniProt Q969M3: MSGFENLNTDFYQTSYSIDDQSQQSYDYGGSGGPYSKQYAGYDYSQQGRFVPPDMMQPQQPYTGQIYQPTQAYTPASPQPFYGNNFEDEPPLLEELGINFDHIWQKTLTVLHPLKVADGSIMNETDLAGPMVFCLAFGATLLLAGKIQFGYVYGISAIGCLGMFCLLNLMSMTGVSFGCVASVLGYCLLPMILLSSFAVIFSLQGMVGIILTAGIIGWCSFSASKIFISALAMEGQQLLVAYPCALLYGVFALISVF
UniProt P63104: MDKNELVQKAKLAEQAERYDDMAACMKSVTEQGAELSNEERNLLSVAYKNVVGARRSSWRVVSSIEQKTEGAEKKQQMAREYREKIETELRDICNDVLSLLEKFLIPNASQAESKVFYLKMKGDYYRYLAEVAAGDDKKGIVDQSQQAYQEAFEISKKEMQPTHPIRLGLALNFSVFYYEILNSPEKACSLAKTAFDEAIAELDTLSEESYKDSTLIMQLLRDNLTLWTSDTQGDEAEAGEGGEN
UniProt O75362: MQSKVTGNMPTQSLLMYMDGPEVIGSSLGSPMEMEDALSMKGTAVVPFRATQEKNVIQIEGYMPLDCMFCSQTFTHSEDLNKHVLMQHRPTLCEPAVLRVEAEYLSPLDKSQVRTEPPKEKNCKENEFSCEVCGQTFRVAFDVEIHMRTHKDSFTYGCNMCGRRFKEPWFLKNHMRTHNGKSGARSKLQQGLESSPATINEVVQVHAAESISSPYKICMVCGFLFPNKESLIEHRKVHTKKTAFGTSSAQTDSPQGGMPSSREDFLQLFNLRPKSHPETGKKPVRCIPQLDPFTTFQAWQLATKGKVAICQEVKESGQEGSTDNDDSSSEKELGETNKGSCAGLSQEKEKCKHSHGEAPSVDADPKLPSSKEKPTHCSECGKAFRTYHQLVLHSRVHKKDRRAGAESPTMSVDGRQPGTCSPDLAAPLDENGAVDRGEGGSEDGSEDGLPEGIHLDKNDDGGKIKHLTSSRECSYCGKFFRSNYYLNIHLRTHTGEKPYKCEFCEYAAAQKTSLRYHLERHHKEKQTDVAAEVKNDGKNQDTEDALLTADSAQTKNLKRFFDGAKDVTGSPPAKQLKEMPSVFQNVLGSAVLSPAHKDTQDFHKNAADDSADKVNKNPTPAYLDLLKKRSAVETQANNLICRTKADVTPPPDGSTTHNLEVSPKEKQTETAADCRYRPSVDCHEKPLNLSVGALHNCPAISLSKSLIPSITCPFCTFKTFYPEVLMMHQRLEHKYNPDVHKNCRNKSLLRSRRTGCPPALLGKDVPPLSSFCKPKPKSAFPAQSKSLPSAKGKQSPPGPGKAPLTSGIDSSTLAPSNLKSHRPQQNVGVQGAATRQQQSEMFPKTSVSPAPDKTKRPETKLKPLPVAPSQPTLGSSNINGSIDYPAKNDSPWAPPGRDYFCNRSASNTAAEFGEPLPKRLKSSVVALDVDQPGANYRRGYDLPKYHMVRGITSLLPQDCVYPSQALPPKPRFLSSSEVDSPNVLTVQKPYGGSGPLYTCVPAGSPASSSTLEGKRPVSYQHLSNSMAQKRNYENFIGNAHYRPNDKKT
UniProt Q8N5P1: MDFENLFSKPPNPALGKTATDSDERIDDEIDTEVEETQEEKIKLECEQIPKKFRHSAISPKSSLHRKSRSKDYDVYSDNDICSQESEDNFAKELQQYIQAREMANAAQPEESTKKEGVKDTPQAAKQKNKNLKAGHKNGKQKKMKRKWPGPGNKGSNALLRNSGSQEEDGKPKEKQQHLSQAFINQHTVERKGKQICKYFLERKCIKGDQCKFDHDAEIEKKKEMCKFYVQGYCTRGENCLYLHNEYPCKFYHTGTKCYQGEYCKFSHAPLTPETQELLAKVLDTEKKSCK
UniProt P17028: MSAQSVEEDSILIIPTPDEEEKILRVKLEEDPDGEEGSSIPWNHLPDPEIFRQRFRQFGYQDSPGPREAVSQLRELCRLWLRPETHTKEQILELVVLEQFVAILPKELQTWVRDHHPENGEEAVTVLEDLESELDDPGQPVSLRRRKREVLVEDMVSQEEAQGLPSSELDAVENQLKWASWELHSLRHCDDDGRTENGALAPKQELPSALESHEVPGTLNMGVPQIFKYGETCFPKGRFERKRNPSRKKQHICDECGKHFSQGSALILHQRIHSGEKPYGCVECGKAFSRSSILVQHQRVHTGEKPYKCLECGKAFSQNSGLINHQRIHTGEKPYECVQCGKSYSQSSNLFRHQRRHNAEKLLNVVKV
UniProt P54577: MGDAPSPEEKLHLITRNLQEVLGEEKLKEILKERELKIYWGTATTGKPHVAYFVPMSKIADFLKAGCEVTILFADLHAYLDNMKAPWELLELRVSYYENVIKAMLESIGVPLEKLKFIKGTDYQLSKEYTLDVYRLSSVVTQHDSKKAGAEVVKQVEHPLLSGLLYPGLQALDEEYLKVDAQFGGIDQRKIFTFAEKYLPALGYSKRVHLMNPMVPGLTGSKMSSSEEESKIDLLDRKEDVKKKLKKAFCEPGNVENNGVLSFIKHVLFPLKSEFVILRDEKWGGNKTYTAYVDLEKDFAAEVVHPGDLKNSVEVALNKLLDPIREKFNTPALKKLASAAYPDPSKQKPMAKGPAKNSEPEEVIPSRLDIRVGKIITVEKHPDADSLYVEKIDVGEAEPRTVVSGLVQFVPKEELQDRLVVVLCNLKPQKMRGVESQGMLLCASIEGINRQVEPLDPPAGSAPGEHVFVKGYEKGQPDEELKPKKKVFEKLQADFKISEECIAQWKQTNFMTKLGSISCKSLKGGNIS
UniProt Q8WV99: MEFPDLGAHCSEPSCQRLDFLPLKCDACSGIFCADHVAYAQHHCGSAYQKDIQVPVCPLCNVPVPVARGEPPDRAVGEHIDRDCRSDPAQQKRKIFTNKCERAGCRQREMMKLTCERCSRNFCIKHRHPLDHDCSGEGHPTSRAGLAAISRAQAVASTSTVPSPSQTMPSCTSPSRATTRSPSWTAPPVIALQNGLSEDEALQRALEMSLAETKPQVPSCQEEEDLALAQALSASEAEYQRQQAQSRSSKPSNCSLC
UniProt Q8IZN3: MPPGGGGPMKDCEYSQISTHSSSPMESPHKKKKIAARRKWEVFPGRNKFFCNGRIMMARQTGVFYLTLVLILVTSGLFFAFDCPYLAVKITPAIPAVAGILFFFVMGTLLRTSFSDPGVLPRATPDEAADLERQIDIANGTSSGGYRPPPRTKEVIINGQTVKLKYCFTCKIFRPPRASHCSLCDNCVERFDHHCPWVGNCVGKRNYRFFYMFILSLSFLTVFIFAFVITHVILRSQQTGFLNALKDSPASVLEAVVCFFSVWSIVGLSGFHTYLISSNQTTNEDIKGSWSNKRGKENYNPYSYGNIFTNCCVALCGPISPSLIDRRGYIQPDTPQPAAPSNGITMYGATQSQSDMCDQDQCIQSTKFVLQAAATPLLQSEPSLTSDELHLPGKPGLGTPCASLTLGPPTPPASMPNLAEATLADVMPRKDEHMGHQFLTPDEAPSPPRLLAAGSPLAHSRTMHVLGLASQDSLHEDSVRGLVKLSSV
UniProt P16989, whole entry, looked up: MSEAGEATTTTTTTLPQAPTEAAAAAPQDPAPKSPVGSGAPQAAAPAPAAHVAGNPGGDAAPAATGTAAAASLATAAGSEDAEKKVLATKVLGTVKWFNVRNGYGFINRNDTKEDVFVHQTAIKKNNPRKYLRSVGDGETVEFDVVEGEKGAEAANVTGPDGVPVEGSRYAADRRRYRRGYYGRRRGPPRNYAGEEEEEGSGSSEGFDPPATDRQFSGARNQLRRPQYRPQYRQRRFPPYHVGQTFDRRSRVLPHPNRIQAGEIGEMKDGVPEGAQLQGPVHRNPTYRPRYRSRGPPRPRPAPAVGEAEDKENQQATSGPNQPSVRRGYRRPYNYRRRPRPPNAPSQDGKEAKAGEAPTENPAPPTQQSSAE

The targets below were run with CCn1cc(-c2ccnc3[nH]c(-c4cccc(CN(C)C)c4)cc23)c(-c2ccc(NC(=O)N(C)C)cc2)n1 (assay: log2 fold change, soluble protein after heating vs DMSO (PISA); higher = thermal stabilisation; K562 cells, 10 uM, 30 min; active = over 0.2 and 3.5 SD of the protein, either way, in both replicates (recomputed)).
Procedure, shortened: (§1)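 K562 cells at 2×10^6 cells/mL were treated with 10 μM compound for 30 min. Aliquots were heated for 3 min across 48°C-58°C, pooled, and extracted in PBS with 0.5% NP-40 at 4°C; soluble protein was the supernatant after 21,000xg for 90 min. Soluble protein was quantified by TMTpro 16plex LC-MS/MS with channel sums equalised, and reported as log2 fold change in thermal stability against DMSO controls, with values from duplicates.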

log2 fold change, inactive:
ZNF143 (UniProt P52747) -0.102, YBX1 (UniProt P67809) 0.249, ZER1 (UniProt Q7Z7L7) -0.16, YWHAQ (UniProt P27348) 0.143, YAE1 (UniProt Q9NRH1) -0.015, ZC3HC1 (UniProt Q86WB0) -0.125, ZC3H18 (UniProt Q86VM9) 0.068, YOD1 (UniProt Q5VVQ6) -0.101, YIPF5 isoform 3 (UniProt Q969M3) 0.06, YIPF6 (UniProt Q96EC8) 0.103, XPO5 (UniProt Q9HAV4) -0.04, YWHAZ (UniProt P63104) -0.042, XPO6 (UniProt Q96QU8) 0.174, YLPM1 (UniProt P49750) -0.012, ZDHHC5 (UniProt Q9C0B5) -0.002, XPNPEP1 isoform 3 (UniProt Q9NQW7) -0.043, ZNF217 (UniProt O75362) 0.036, ZFAND6 (UniProt Q6FIF0) -0.009, ZC3H8 (UniProt Q8N5P1) 0.092

What follows are targets tested with CN(C)CC(=O)Nc1ccc2[nH]c(=O)c3ccccc3c2c1 in the same assay as above.
Procedure, shortened: as §1

log2 fold change, inactive:
YJU2 (UniProt Q9BW85) -0.045, ZFAND5 (UniProt O76080) -0.119, ZNF24 (UniProt P17028) -0.057, ZFPL1 (UniProt O95159) 0, ZMYM3 (UniProt Q14202) -0.067, XRCC5 (UniProt P13010) 0.169, ZMAT2 (UniProt Q96NC0) -0.018, YARS (UniProt P54577) 0.057, YIPF4 (UniProt Q9BSR8) 0.09, ZFP91 (UniProt Q96JP5) -0.074, XRCC6 (UniProt P12956) 0.071, YY1 (UniProt P25490) -0.047, ZFYVE9 (UniProt O95405) -0.111, XPNPEP3 (UniProt Q9NQH7) -0.004, ZFAND2B (UniProt Q8WV99) -0.089, ZDHHC17 (UniProt Q8IUH5) -0.005, YWHAB (UniProt P31946) -0.033, XPO1 (UniProt O14980) 0.058, ZNF143 (UniProt P52747) -0.025, YBX1 (UniProt P67809) -0.134, ZER1 (UniProt Q7Z7L7) -0.099, ZDHHC14 (UniProt Q8IZN3) 0.078, YWHAQ (UniProt P27348) 0.16, YAE1 (UniProt Q9NRH1) -0.108, ZC3HC1 (UniProt Q86WB0) 0.089, ZC3H18 (UniProt Q86VM9) -0.039, YOD1 (UniProt Q5VVQ6) 0.043, YIPF5 isoform 3 (UniProt Q969M3) 0.014, YIPF6 (UniProt Q96EC8) -0.012, XPO5 (UniProt Q9HAV4) 0.018, YWHAZ (UniProt P63104) 0.009, XPO6 (UniProt Q96QU8) 0.065, YLPM1 (UniProt P49750) -0.037, ZDHHC5 (UniProt Q9C0B5) -0.032, XPNPEP1 isoform 3 (UniProt Q9NQW7) 0.051, ZNF217 (UniProt O75362) 0.06, ZFAND6 (UniProt Q6FIF0) -0.052, ZC3H8 (UniProt Q8N5P1) -0.047, YBX3 isoform 2 (UniProt P16989) -0.201

What follows are targets tested with CN(CCOC1=CC=C(C=C1)C[C@H]2C(=O)NC(=O)S2)C3=CC=CC=N3 (racemic) [rosiglitazone] in the same assay as above.
Procedure, shortened: as §1

log2 fold change, inactive:
YJU2 (UniProt Q9BW85) 0.011, ZNF24 (UniProt P17028) -0.011, YARS (UniProt P54577) 0.063, ZFYVE9 (UniProt O95405) -0.073, ZFAND2B (UniProt Q8WV99) 0.009, ZDHHC14 (UniProt Q8IZN3) 0.104, YBX3 isoform 2 (UniProt P16989) -0.154

These targets were tested with CN1C2=C(C3=C1C(=O)N(N=C3)CC4=CC(=CC=C4)N)SC(=C2)S(=O)C in the same assay as above.
Procedure, shortened: as §1

log2 fold change, inactive:
YJU2 (UniProt Q9BW85) -0.044, ZFAND5 (UniProt O76080) 0.022, ZNF24 (UniProt P17028) 0.148, ZFPL1 (UniProt O95159) -0.031, ZMYM3 (UniProt Q14202) -0.023, XRCC5 (UniProt P13010) 0.124, ZMAT2 (UniProt Q96NC0) -0.034, YARS (UniProt P54577) 0.045, YIPF4 (UniProt Q9BSR8) -0.06, ZFP91 (UniProt Q96JP5) 0.099, XRCC6 (UniProt P12956) -0.014, YY1 (UniProt P25490) 0.045, ZFYVE9 (UniProt O95405) -0.116, XPNPEP3 (UniProt Q9NQH7) -0.022, ZFAND2B (UniProt Q8WV99) -0.018, ZDHHC17 (UniProt Q8IUH5) -0.027, YWHAB (UniProt P31946) -0.068, XPO1 (UniProt O14980) -0.033, ZNF143 (UniProt P52747) -0.003, YBX1 (UniProt P67809) 0.183, ZER1 (UniProt Q7Z7L7) 0.019, ZDHHC14 (UniProt Q8IZN3) -0.046, YWHAQ (UniProt P27348) -0.167, YAE1 (UniProt Q9NRH1) 0.046, ZC3HC1 (UniProt Q86WB0) -0.135, ZC3H18 (UniProt Q86VM9) 0.135, YOD1 (UniProt Q5VVQ6) -0.04, YIPF5 isoform 3 (UniProt Q969M3) 0.043, YIPF6 (UniProt Q96EC8) -0.097, XPO5 (UniProt Q9HAV4) -0.027, YWHAZ (UniProt P63104) -0.115, XPO6 (UniProt Q96QU8) 0.018, YLPM1 (UniProt P49750) -0.057, ZDHHC5 (UniProt Q9C0B5) -0.049, XPNPEP1 isoform 3 (UniProt Q9NQW7) -0.064, ZNF217 (UniProt O75362) 0.237, ZFAND6 (UniProt Q6FIF0) -0.003, ZC3H8 (UniProt Q8N5P1) 0.127, YBX3 isoform 2 (UniProt P16989) 0.247
